# Source: PubChem BioAssay AID602196 (INSERM, 2012)
# Purpose: 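Modifiers of cisplatin sensitivity in A549 cells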
# Cell system: human A549 lung cancer cells
# Knock-down reagent: siRNA pair against human genes
# Duration: 48 h transfection before cisplatin; time from cisplatin to read-out not stated
# Treatment: cisplatin at a dose killing half of control-siRNA cells; exact dose and duration not given
# Detection: 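Shift in cisplatin death relative to control siRNA, from -50 (all cells die) to +50 (no cells die); siRNAs harmful on their own scored 0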
# Scale: two-siRNA summed score (-2 to +2): higher = both siRNAs protect from cisplatin killing; -2 means both sensitise; mean protection from cisplatin (shift in death): higher = protection from cisplatin killing
# Active means: 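Each siRNA scores 0 if harmful alone by LDH or WST-1, otherwise +1 if it reduces and -1 if it increases cisplatin killing; a gene is active when both siRNAs agree (sum +2 or -2)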
# Calls: active = both siRNAs shift cisplatin killing the same way; inactive = no consistent shift, or siRNA harmful alone
# The deposit covers about 23,000 reagents; shown is an unselected part. 455 of them (2%) were called active. 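Active includes both protection and sensitisation; some change values fall well beyond the stated -50 to +50 range.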 A number with no mark means an inactive call. Further read-outs or replicates are left out here. Not given: the amount of reagent.
The first 3 entries as a preview:
gene,two-siRNA summed score (-2 to +2),mean protection from cisplatin (shift in death) (%)
SFT2D2,0,11
YIPF6,1,2.6
NUDCD3,0,3

Results, repeating the preview:
gene,two-siRNA summed score (-2 to +2),mean protection from cisplatin (shift in death) (%)
SFT2D2,0,11
YIPF6,1,2.6
NUDCD3,0,3
SPR,0,5.5
PSMB8,-1,-8.7
GON4L,0,6.5
CUL4A,1,3.6
LOC440033,0,22.7
GDE1,0,7.3
IK,0,-23
MACO1,0,6.2
ENOPH1,0,16.5
LOC390729,1,22
ZDHHC14,0,3.5
FPR1,-2 (active),-14.3
MED10,0,8.6
LIG4,0,3.8
AZIN1,0,-3.3
ATP12A,1,5.6
U2AF1,1,11.3
TRIM37,1,-1.8
DHRS3,0,11.3
LSMEM2,0,7.9
JADE1,0,12
OR6Q1,0,-3.1
EGFL8,1,8.7
GML,0,0.6
ACVR1C,0,0.5
PSCA,0,2
LOC441726,0,-0.7
CTRB1,0,1.1
COL10A1,1,23
LOC284890,0,7.5
PKD1L1-AS1,0,-4.3
MYPN,0,3
RNPS1,0,-2.9
NOXRED1,0,-1.3
GDF11,0,1.8
LECT2,0,12.3
LOC440085,0,14.3
CGN,0,11.2
CATSPERT,0,-1.2
PDGFRB,1,8.8
OR5T1,0,2.2
PSG11,-1,-5.7
TYMS,0,5.2
TMEM95,0,5.7
FYB2,0,4.8
LOC402326,0,4.7
LOC441955,1,13
LOC389129,0,6.5
SASH1,0,8.8
SEPTIN12,0,2.5
BCL2L1,-1,-22.4
ZEB1,0,2.6
LINC01565,0,-3.1
EEA1,0,11.1
